Test results published in patent EP0938338B1, “CARRIER COMPOSITION FOR INFLUENCING THE TIGHT JUNCTION PERMEABILITY” (Ghyssaert, Joris Rosa Michael, priority 1996, dated 1998).

Experiments:
[1] = tested on: junctions of the colonic mucosa; test: Blockade of the paracellular route by anti-diarrhoeal drugs (99mTc-EDTA transfer lumen to blood); conditions: in vivo
large intestine = test: Colon perfusion: secretory effect of rhein (water, sodium, K+) and its antagonism; conditions: in vivo

With CN1CC[C@]23c4c5ccc(O)c4O[C@H]2[C@@H](O)C=C[C@H]3[C@H]1C5 [morphine] the “absorption of 99mTc-EDTA complex from the colon” value [1] was “retained nearly all the radioactive compound in the colon” and the sodium absorption (large intestine) was “counteracted the inhibition of sodium absorption”.
